# Reference: the supplement of paper PMC9938546
# Counter-ions that a name gives are not always drawn. The list shows a part of the results. Plates or batches differ in their baseline, so values are only roughly comparable.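 HCT116-GFP, a KRAS-mutant, microsatellite-unstable human colorectal cancer line, constantly expresses green fluorescent protein; immune cells were from healthy donors. Cancer cell survival was tracked by live-cell imaging of green fluorescence, and activated immune cells by themselves reduced survival to roughly half.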
# System: HCT116-GFP
# Experiment: HCT116-GFP viability (GFP intensity) relative to untreated HCT116-GFP monoculture control, co-culture with activated PBMCs; higher = less cancer cell killing
# Details: culture: co-culture with anti-CD3/IL2 activated PBMCs 1:1; 10 µM; 72 h
row,SMILES,HCT116-GFP viability
1,CCOC(=O)C1=C(C)NC(C)=C(C(=O)OCC)C1c1ccccc1/C=C/C(=O)OC(C)(C)C [Lacidipine],29.9%
2,CCOc1cc(CC(=O)N[C@@H](CC(C)C)c2ccccc2N2CCCCC2)ccc1C(=O)O [Repaglinide],43.4%
3,COc1c(N2C[C@@H]3CCCN[C@@H]3C2)c(F)cc2c(=O)c(C(=O)O)cn(C3CC3)c12 [Moxifloxacin],26.1%
4,COc1ccc(C(=O)c2ccccc2)c(O)c1 [Oxybenzone],66.7%
5,COc1ncnc(NS(=O)(=O)c2ccc(N)cc2)c1OC [Sulfadoxine],36.9%
6,CC(=O)OCC(=O)[C@@]1(O)[C@H](C)C[C@H]2[C@@H]3CCC4=CC(=O)C=C[C@]4(C)[C@@]3(F)[C@@H](O)C[C@@]21C [Dexamethasone acetate],88.3%
7,COc1ccc(C(=O)CC(=O)c2ccc(C(C)(C)C)cc2)cc1 [Avobenzone],41.6%
8,Nc1nc2c(ncn2COCCO)c(=O)[nH]1 [Acyclovir],41.8%
9,CC(C)(C)NC(=O)[C@@H]1C[C@@H]2CCCC[C@@H]2CN1C[C@@H](O)[C@H](Cc1ccccc1)NC(=O)[C@H](CC(N)=O)NC(=O)c1ccc2ccccc2n1 [Saquinavir mesylate],22.6%
10,CCCCCN(CCCCC)C(=O)C(CCC(=O)O)NC(=O)c1ccc(Cl)c(Cl)c1 (configuration not stated) [Lorglumide sodium salt],75.3%
11,O=C(CCCCCCC(=O)Nc1ccccc1)NO [Vorinostat],1.34%
12,CC[C@H]1OC(=O)C[C@@H](O)[C@H](C)[C@@H](O[C@@H]2O[C@H](C)[C@@H](O[C@H]3C[C@@](C)(O)[C@@H](O)[C@H](C)O3)[C@H](N(C)C)[C@H]2O)[C@@H](CC=O)C[C@@H](C)C(=O)/C=C/C(C)=C/[C@@H]1CO[C@@H]1O[C@H](C)[C@@H](O)[C@@H](OC)[C@H]1OC [Tylosin],68%
13,C[C@]12C[C@H](O)[C@H]3[C@@H](CCC4=CC(=O)CC[C@@]43C)[C@@H]1CC[C@@H]2C(=O)CO [Corticosterone],62.1%
14,COC(=O)C1=C(C)NC(C)=C(C(=O)OC2CCCN(Cc3ccccc3)C2)C1c1cccc([N+](=O)[O-])c1 (configuration not stated) [Benidipine hydrochloride],32%
15,CC1(C)O[C@@H]2C[C@H]3[C@@H]4CCC5=CC(=O)C=C[C@]5(C)[C@H]4[C@@H](O)C[C@]3(C)[C@]2(C(=O)CO)O1 [Desonide],84.1%
16,CCN(CC)C(=S)SSC(=S)N(CC)CC [Disulfiram],6.73%
17,C/C(=C(\CCOP(=O)(O)O)SC(=O)c1ccccc1)N(C=O)Cc1cnc(C)nc1N [Benfotiamine],67.6%

# Numbers 2 to 3 from above:
row,SMILES,HCT116-GFP viability
2,CCOc1cc(CC(=O)N[C@@H](CC(C)C)c2ccccc2N2CCCCC2)ccc1C(=O)O [Repaglinide],43.4%
3,COc1c(N2C[C@@H]3CCCN[C@@H]3C2)c(F)cc2c(=O)c(C(=O)O)cn(C3CC3)c12 [Moxifloxacin],26.1%
